pKd: −log10 of the molar value. For at least one entry, the source does not settle the construct or the ends of the probe. For part of these data: No signal at the amounts used counts as a negative. For part of these data: At least one verdict was read from the data and is not stated in words by the source. Where a protein sequence is shown, tags need not be part of it.
Columns and labels:
[1] = biological target: T1, Df31 (Decondensation Factor 31) (Drosophila) (UniProt O16043); assay: MST; conditions: MST: 50 nM labelled oligonucleotide in EMSA buffer (composition cited, ref 44), 28 C, Hill fit; recombinant protein; label: fluorescent
T1 sequence (looked up, limits assumed): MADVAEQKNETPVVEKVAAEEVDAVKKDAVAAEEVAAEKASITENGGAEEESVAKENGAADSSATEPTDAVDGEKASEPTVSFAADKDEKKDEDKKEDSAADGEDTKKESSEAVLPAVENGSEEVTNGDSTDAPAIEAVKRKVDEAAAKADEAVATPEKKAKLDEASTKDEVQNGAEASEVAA

[2] = biological target: T2, UAP56 (Arabidopsis thaliana) (UniProt Q56XG6); assay: MST; conditions: MST: 50 nM labelled oligonucleotide in EMSA buffer (composition cited, ref 44), 28 C, Hill fit, recombinant protein, residues 1-427, protein details: 6xHis (pQE9), label: fluorescent
T2 sequence (looked up): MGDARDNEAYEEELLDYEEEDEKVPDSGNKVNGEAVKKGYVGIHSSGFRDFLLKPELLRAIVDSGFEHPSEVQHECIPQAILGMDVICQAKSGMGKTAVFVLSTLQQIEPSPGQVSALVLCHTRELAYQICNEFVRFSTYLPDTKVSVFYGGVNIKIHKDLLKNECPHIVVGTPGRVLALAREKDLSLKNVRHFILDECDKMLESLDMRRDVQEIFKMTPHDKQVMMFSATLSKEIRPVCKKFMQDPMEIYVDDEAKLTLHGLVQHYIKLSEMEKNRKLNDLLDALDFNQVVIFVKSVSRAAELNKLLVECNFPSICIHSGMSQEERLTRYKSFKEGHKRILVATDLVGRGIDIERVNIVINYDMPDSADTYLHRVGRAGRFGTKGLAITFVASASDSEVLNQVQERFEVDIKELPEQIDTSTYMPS

[3] = biological target: T1, Df31 (Decondensation Factor 31) (Drosophila); assay: EMSA; conditions: 35 uM protein, EMSA: 32P probe, PAGE, same cited protocol, salt and pH not given, recombinant protein, label: 32P
[4] = biological target: T2, UAP56 (Arabidopsis thaliana); assay: EMSA; conditions: EMSA: 32P probe, PAGE, same cited protocol, salt and pH not given, recombinant protein, residues 1-427, protein details: 6xHis (pQE9), label: 32P

Sequence: CCUCCUUUUUUCUUUUUUUUUUUUUUUCU [R29 ssRNA]
- pKd [1]: 4.45
- pKd [2]: 4.58

Sequence: AAAACAAAAUAGCACCGUAAAGCAC [R25 ssRNA]
- binding result [3]: binds
- binding result ([4]; 0.25-5 uM protein, single complex): binds

Sequence: AAAACAAAATAGCACCGTAAAGCAC (double strand) [D25ds]
- binding result [3]: no binding

Sequence: AAAACAAAAUAGCACCGUAAAGCAC / GUGCUUUACGGUGCUAUUUUGUUUU [R25ds]
- binding result [3]: no binding

Sequence: CCTCCTTTTTTCTTTTTTTTTTTTTTTCT [D29 ssDNA]
- binding result ([2]; up to 80 uM protein, single-stranded DNA): no binding

Sequence: AAAACAAAATAGCACCGTAAAGCAC [D25 ssDNA]
- binding result ([3]; single-stranded DNA): no binding
- binding result ([4]; 10-30 uM protein, single-stranded DNA): no binding

— paper PMC3608606, “Arabidopsis DEAD-Box RNA Helicase UAP56 Interacts with Both RNA and DNA as well as with mRNA Export Factors”
